The source of these data is PMC9454964.

Protein sequences, listed by entry. Tags and fused reporters are not part of them.
UniProt O95817: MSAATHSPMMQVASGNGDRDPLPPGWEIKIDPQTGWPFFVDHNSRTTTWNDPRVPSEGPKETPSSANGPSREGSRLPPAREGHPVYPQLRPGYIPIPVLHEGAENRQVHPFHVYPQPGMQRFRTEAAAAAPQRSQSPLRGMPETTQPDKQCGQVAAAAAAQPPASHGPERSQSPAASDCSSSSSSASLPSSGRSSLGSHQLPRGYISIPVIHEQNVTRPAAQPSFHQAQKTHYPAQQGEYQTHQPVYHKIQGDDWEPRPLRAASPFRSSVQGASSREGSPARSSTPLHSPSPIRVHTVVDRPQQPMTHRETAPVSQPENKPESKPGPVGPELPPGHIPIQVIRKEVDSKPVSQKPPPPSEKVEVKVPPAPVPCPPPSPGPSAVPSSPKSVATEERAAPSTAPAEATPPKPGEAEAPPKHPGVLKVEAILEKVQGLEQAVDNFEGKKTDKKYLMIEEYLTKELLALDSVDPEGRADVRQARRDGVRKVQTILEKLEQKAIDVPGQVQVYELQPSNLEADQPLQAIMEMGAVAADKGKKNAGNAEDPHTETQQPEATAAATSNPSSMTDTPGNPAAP
UniProt Q99732: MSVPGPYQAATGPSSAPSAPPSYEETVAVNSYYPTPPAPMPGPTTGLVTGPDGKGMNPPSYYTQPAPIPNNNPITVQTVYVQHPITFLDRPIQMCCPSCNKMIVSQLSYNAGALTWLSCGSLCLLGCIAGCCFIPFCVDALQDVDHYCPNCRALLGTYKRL

This assay has as its target His-tagged full-length Bag3 (FL) (UniProt O95817). In words: pull-down; transfected 293T cells fixed with 1.2% formaldehyde, lysed (DPBS, 0.5% Triton X-100, 10 mM imidazole), His-tagged Bag3 held on HisPur Ni-NTA resin at 4 °C, washed, eluted with 300 mM imidazole; associated LITAF detected by immunoblot.

Results are given in words; binding and its absence hold for the method and conditions named. Binding seen in cells or lysates may run through a third protein. Some results given as binding are weak or reduced against the parent protein; the word gives no strength.

With “lipopolysaccharide TNFα factor (LITAF) (from UniProt Q99732 1-161)”, the binding result is given as “binds”.
